# In the supplement of paper PMC7752906:
# Structures can show the parent of a compound that is named as a salt. The list shows a part of the results. This data set is noisy: repeats of one test often differ as much as different tests do.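 Test system: Schistosoma mansoni schistosomula, roughly 40 per well, imaged in bright field over time and compared with wells given 0.1% DMSO. Distance read-out: the paper calls a drug a hit when its Mahalanobis distance is at least 2.47, three standard deviations above the DMSO control mean. Degeneracy is the share of worms classified opaque.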
# Test system: Schistosoma mansoni schistosomula
# Assay: Mahalanobis distance of static-rate-frequency phenotype descriptors from DMSO controls (dimensionless); higher = stronger phenotypic change versus DMSO
# Conditions: 10 µM; 72 h
row,SMILES,Mahalanobis distance
1,CNC(=C[N+](=O)[O-])NCCSCc1ccc(CN(C)C)o1 [Ranitidine],inactive: 1.49
2,COC(=O)[C@H]1[C@H]2C[C@@H]3c4[nH]c5cc(OC)ccc5c4CCN3C[C@H]2C[C@@H](OC(=O)c2cc(OC)c(OC)c(OC)c2)[C@@H]1OC [reserpine],active: 2.65
3,CS(=O)(=O)c1ccc([C@@H](O)[C@@H](CO)NC(=O)C(Cl)Cl)cc1 [Thiamphenicol],active: 2.52
4,C[C@]12C=CC(=O)C=C1CC[C@@H]1[C@@H]2[C@@H](O)C[C@@]2(C)[C@H]1CC[C@]2(O)C(=O)CO [Prednisolone],inactive: 2.33
5,N=c1ccn2c(n1)O[C@H]1[C@H](O)[C@@H](CO)O[C@H]12 [Ancitabine Hydrochloride],inactive: 1.77
6,O=C(O)Cc1ccccc1Nc1c(Cl)cccc1Cl [Diclofenac],inactive: 1.89
7,OC[C@@H](O)[C@@H](O)CO [Erythritol],inactive: 1.66
8,O=C1C(CC[S+]([O-])c2ccccc2)C(=O)N(c2ccccc2)N1c1ccccc1 (stereo not given) [Sulfinpyrazone],inactive: 2.02
9,NS(=O)(=O)c1cc2c(cc1Cl)N=C(CSCc1ccccc1)NS2(=O)=O [Benzthiazide],inactive: 1.7
10,CC(=O)OC/C=C(C)/C=C/C=C(C)/C=C/C1=C(C)CCCC1(C)C [Retinyl Acetate],inactive: 2.26
11,C#C[C@]1(OC(C)=O)CC[C@H]2[C@@H]3CCC4=C[C@@H](OC(C)=O)CC[C@@H]4[C@H]3CC[C@@]21C [Ethynodiol Diacetate],active: 2.82
12,O=C1CC[C@@H](C(=O)O)N1 [Pidolic Acid],active: 2.89
13,C#C[C@]1(O)CC[C@H]2[C@@H]3CCC4=CC(=O)CC[C@@H]4[C@H]3CC[C@@]21C [Norethindrone],active: 2.47
14,CO[C@@]1(NC(=O)C(C(=O)O)c2ccc(O)cc2)C(=O)N2C(C(=O)O)=C(CSc3nnnn3C)CO[C@@H]21 (stereo not given in full) [Moxalactam Disodium],inactive: 2.09
15,COc1cc2c(cc1O)CC[C@@H]1[C@@H]2CC[C@]2(C)[C@@H](O)CC[C@@H]12 [2-methoxyestradiol],active: 2.83
16,CN(C)CCCN1c2ccccc2CCc2ccc(Cl)cc21 [Clomipramine],inactive: 1.5
17,Cc1cc(C(C)(C)CC(C)(C)C)ccc1OCCOCC[N+](C)(C)Cc1ccccc1 [Methylbenzethonium Chloride],inactive: 2.27
18,Cc1cc(NC(=O)C2=C(O)c3ccccc3S(=O)(=O)N2C)no1 [Isoxicam],inactive: 1.98
19,Nc1ccc(O)c(C(=O)O)c1 [Mesalamine],inactive: 1.65
20,CCC(=O)O[C@H](CC(=O)O)C[N+](C)(C)C [Levocarnitine Propionate Hydrochloride],inactive: 2.05
21,Clc1ccccc1CN1CCc2sccc2C1 [Ticlopidine],inactive: 2.03
22,CC1=C(/C=C/C(C)=C/C=C/C(C)=C/C=C/C=C(C)/C=C/C=C(C)/C=C/C2=C(C)CCCC2(C)C)C(C)(C)CCC1 [Beta-carotene],inactive: 1.66
23,CC[C@H]1OC(=O)[C@H](C)[C@@H](O[C@H]2C[C@@](C)(OC)[C@@H](O)[C@H](C)O2)[C@H](C)[C@@H](O[C@@H]2O[C@H](C)C[C@H](N(C)C)[C@H]2O)[C@](C)(O)C[C@@H](C)C(=O)[C@H](C)[C@@H](O)[C@]1(C)O [Erythromycin],inactive: 2.12
24,CC(C(=O)O)c1ccc(CC2CCCC2=O)cc1 (stereo not given) [Loxoprofen],active: 3.12

row,SMILES,Mahalanobis distance
1,Clc1ccc2c(c1)C(N1CCNCC1)=Nc1ccccc1O2 [Amoxapine],active: 4.54
2,CC(C)(Oc1ccc(CCNC(=O)c2ccc(Cl)cc2)cc1)C(=O)O [Bezafibrate],inactive: 1.5
3,OCCN1CCN(CCCN2c3ccccc3Sc3ccc(C(F)(F)F)cc32)CC1 [fluphenazine],inactive: 1.86
4,O=C(O)c1ccccc1-c1c2cc(I)c(=O)c(I)c-2oc2c(I)c(O)c(I)cc12 [Erythrosine Sodium],active: 3.94
5,CCc1ccc(CCOc2ccc(CC3SC(=O)NC3=O)cc2)nc1 (stereo not given) [Pioglitazone],inactive: 2.47
6,Cc1ccc(N(CC2=NCCN2)c2cccc(O)c2)cc1 [Phentolamine],inactive: 2.4
7,O=C1c2c(O)cc(CO)cc2C(OC2OC(CO)C(O)C(O)C2O)c2cccc(OC3OC(CO)C(O)C(O)C3O)c21 (stereo not given) [Casanthranol [cascaroside A Shown]],inactive: 2.15
8,CO[C@H]1/C=C/O[C@@]2(C)Oc3c(C)c(O)c4c(O)c(c(/C=N/N5CCN(C)CC5)c(O)c4c3C2=O)NC(=O)/C(C)=C\C=C\[C@H](C)[C@H](O)[C@@H](C)[C@@H](O)[C@@H](C)[C@H](OC(C)=O)[C@@H]1C [Rifampin],active: 2.95
9,Cc1c(Cl)cccc1Nc1ccccc1C(=O)O [Tolfenamic Acid],inactive: 1.69
10,COC(=O)[C@H](c1ccccc1Cl)N1CCc2sccc2C1 [Clopidogrel],active: 2.61
11,C[C@]12CCC(=O)C=C1CC[C@@H]1[C@@H]2C(=O)C[C@@]2(C)[C@H]1CC[C@]2(O)C(=O)CO [Cortisone],inactive: 2.14
12,CC(=O)[C@@]12O[C@](C)(c3ccccc3)O[C@@H]1C[C@H]1[C@@H]3CCC4=CC(=O)CC[C@]4(C)[C@H]3CC[C@@]12C [Algestone Acetophenide],inactive: 2.18
13,CN(C)[C@@H]1C(O)=C(C(N)=O)C(=O)[C@@]2(O)C(O)=C3C(=O)c4c(O)cccc4[C@@](C)(O)[C@H]3C[C@@H]12 [Tetracycline],inactive: 2.13
14,COc1ccc(CC(C)NCC(O)c2ccc(O)c(NC=O)c2)cc1 (stereo not given) [Formoterol],active: 2.53
15,CC(C)C[C@H](NC(=O)[C@H](Cc1ccccc1)NC(=O)c1cnccn1)B(O)O [Bortezomib],inactive: 1.73
16,Oc1c(Br)cc(Br)c2cccnc12 [Broxyquinoline],inactive: 2.22
17,CCOC(=O)N1CCC(=C2c3ccc(Cl)cc3CCc3cccnc32)CC1 [Loratadine],inactive: 1.71
18,NC(=O)c1ccccc1O [Salicylamide],inactive: 1.52
19,CCCCCN(C)CCC(O)(P(=O)(O)O)P(=O)(O)O [Ibandronate Sodium],active: 2.58
20,C[Se]CC[C@H](N)C(=O)O [Selenomethionine],inactive: 2.29
21,c1ccc2c(c1)CCCC2C1=NCCN1 (stereo not given) [Tetrahydrozoline],inactive: 1.81
22,CCCCN1C[C@H](O)[C@@H](O)[C@H](O)[C@H]1CO [Miglustat],inactive: 1.86
23,C[C@@H](O)[C@H]1C(=O)N2C(C(=O)O)=C(SCCNC=N)C[C@H]12 [Imipenem],active: 3.18
24,CS(=O)(=O)c1ccc([C@@H](O)[C@@H](CF)NC(=O)C(Cl)Cl)cc1 [Florfenicol],inactive: 1.95

# Quoted from the entries so far, three compounds:
row,SMILES,Mahalanobis distance
15,CC(C)C[C@H](NC(=O)[C@H](Cc1ccccc1)NC(=O)c1cnccn1)B(O)O [Bortezomib],inactive: 1.73
16,Oc1c(Br)cc(Br)c2cccnc12 [Broxyquinoline],inactive: 2.22
17,CCOC(=O)N1CCC(=C2c3ccc(Cl)cc3CCc3cccnc32)CC1 [Loratadine],inactive: 1.71

# (list continues)

row,SMILES,Mahalanobis distance
1,Cc1cccc(C)c1NC(=O)c1ccccc1C(=O)O [Ftaxilide],inactive: 2.04
2,Nc1ccc(S(=O)(=O)NC(=O)c2ccccc2)cc1 [Sulfabenzamide],inactive: 2.14
3,C[N+](C)(C)CCOP(=O)(O)OP(=O)([O-])OC[C@H]1O[C@@H](n2ccc(N)nc2=O)[C@H](O)[C@@H]1O [Citicoline],inactive: 1.71
4,CCCc1ncc(C[n+]2ccccc2C)c(N)n1 [Amprolium],inactive: 1.64
5,Oc1ccc(C2CNCCc3c2cc(O)c(O)c3Cl)cc1 (stereo not given) [Fenoldopam Mesylate],active: 2.91
6,CC(C(=O)O)c1cccc(Oc2ccccc2)c1 (stereo not given) [Fenoprofen],inactive: 1.45
7,CCn1cc(C(=O)O)c(=O)c2cc(F)c(N3CCNCC3)nc21 [Enoxacin],inactive: 1.63
8,OC[C@@H](O)[C@@H](O)[C@H](O)[C@H](O)CO [Mannitol],active: 2.66
9,O=C(O)CCCCCCCC(=O)O [Azelaic Acid],inactive: 2.09
10,O=C(O)CN1C(=O)c2cccc3cccc(c23)C1=O [Alrestatin],inactive: 1.84
11,CCCCN(CCCC)CCCOC(=O)c1ccc(N)cc1 [Butacaine],inactive: 1.65
12,Cc1ccc(C(=O)c2ccc(CC(=O)O)n2C)cc1 [Tolmetin Sodium],inactive: 1.17
13,CC(=O)OCC(=O)[C@@]1(O)CC[C@H]2[C@@H]3CCC4=CC(=O)C=C[C@]4(C)[C@@]3(Cl)[C@@H](Cl)C[C@@]21C [Dichlorisone Acetate],inactive: 1.54
14,Cc1ncc(C[n+]2csc(CCO)c2C)c(N)n1 [Thiamine],inactive: 1.58
15,CC(C)c1c(C(=O)Nc2ccccc2)c(-c2ccccc2)c(-c2ccc(F)cc2)n1CC[C@@H](O)C[C@@H](O)CC(=O)O [Atorvastatin Calcium],active: 3.13
16,CCCCCCCCCCCCCCCC(=O)OC/C=C(C)/C=C/C=C(C)/C=C/C1=C(C)CCCC1(C)C [Retinyl Palmitate],inactive: 2.02
17,NS(=O)(=O)c1cc(C2(O)NC(=O)c3ccccc32)ccc1Cl (stereo not given) [Chlorthalidone],inactive: 2.1
18,CC[N+](C)(C)c1cccc(O)c1 [Edrophonium Chloride],inactive: 2.05
19,Nc1[nH]cnc2ncnc1-2 [Adenine],inactive: 1.74
20,CCCOc1cc(N)ccc1C(=O)OCCN(CC)CC [Propoxycaine Hydrochloride],inactive: 1.5
21,OC(Cn1cncn1)(Cn1cncn1)c1ccc(F)cc1F [Fluconazole],inactive: 1.4
22,CN1CCN(CC/C=C2/c3ccccc3Sc3ccc(S(=O)(=O)N(C)C)cc32)CC1 [Thiothixene],inactive: 2.43
